Earlier results in patent publication US6586425B2, “Cytoskeletal active agents for glaucoma therapy” (Wisconsin Alumni Research Foundation, priority 1996, dated 2003).
Some entries share one result that the patent states for a list of compounds. At least one structure is not confirmed: it was looked up by name or label, or the drawing left a doubt.

Tested on: living monkey eye
Details: living monkeys; cited from earlier work

Structure (SMILES) | increase in outflow facility
C/C1=C/C(=O)O[C@@H]2C[C@@H](CC[C@H](C)/C=C\C=C\CC1)O[C@@](O)([C@@H]1CSC(=O)N1)C2 [LAT-A] | up to 4 fold
C/C1=C/C(=O)O[C@@H]2C[C@@H](CC[C@H](C)/C=C\CC1)O[C@@](O)([C@@H]1CSC(=O)N1)C2 [LAT-B] | up to 4 fold
